These results are taken from publication PMC8263706.

The chains behind the UniProt entries cited, without tags or fusion partners. Where a name states a change or a piece, a line headed by the entry shows the natural chain unless it says otherwise. Residues count along the entry.
UniProt O22476, residues 24-1196: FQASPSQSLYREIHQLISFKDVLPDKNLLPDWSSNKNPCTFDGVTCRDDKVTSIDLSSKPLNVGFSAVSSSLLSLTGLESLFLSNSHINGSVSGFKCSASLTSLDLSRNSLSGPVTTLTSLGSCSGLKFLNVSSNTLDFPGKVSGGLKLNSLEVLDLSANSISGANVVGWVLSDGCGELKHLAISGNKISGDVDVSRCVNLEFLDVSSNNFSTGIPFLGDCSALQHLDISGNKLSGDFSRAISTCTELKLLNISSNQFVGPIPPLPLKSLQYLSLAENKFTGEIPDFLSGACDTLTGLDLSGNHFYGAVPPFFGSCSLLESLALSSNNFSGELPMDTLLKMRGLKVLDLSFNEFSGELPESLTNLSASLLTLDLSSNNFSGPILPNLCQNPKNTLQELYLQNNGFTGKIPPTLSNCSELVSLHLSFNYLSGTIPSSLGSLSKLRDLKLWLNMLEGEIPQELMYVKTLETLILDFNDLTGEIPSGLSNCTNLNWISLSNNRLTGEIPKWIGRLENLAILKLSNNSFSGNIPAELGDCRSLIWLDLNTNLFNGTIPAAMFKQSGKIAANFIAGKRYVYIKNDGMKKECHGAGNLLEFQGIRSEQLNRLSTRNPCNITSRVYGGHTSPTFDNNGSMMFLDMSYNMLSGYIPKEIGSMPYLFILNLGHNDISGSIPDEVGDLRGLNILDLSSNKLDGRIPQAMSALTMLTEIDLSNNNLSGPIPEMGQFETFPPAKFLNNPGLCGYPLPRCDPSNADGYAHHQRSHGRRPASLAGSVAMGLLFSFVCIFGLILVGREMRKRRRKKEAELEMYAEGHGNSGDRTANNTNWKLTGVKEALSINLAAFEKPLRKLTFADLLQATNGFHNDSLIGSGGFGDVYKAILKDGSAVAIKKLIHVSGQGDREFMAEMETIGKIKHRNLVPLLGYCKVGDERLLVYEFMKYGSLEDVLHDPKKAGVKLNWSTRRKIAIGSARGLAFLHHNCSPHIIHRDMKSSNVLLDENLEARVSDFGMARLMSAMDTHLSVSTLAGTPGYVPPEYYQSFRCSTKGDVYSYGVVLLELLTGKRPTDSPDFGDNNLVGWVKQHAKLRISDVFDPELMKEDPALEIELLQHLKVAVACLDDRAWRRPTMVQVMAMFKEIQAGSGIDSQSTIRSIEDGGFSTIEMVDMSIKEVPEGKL
UniProt Q9ZWC8: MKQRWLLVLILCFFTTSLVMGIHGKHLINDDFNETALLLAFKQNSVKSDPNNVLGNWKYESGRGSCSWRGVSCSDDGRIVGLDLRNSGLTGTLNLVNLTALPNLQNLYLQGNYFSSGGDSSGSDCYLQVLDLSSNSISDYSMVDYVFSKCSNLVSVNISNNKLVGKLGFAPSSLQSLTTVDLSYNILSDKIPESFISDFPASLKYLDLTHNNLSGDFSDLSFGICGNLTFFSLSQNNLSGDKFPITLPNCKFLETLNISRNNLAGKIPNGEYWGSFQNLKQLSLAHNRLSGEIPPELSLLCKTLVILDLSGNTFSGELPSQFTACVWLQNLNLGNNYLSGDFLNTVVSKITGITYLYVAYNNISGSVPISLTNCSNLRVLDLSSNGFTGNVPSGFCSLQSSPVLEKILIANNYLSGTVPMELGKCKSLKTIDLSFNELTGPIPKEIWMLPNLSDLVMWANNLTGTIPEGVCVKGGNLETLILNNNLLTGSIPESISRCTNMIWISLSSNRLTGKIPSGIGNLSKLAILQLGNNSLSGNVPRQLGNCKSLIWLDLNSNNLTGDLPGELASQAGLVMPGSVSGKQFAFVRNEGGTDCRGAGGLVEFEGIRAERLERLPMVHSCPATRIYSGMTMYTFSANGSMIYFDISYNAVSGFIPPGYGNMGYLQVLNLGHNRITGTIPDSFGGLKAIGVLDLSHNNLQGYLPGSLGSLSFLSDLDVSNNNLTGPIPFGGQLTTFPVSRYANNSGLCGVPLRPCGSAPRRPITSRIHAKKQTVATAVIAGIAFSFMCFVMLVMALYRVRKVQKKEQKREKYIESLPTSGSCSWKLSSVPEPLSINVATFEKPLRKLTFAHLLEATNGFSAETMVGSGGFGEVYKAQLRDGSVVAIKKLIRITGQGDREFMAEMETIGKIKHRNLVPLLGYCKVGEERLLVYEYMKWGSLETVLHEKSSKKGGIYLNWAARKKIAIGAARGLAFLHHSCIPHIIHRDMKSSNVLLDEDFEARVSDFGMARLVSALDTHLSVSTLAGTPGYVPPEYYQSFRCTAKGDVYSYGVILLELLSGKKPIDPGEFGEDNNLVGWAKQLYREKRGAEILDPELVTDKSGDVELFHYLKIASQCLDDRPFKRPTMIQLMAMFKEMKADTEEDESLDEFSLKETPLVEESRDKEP
UniProt Q94C78: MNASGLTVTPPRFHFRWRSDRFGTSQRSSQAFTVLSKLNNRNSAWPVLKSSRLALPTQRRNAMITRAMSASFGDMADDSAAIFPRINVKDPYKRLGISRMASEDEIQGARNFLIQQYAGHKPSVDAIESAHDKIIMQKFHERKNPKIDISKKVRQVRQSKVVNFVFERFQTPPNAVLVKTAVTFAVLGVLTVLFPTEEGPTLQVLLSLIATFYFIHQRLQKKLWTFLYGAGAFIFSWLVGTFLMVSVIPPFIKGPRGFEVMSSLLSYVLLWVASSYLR

Results are given in words; binding and its absence hold for the method and conditions named. Binding seen in cells or lysates may run through a third protein. Binding calls can cover weak binding; strength is not graded here. For part of these data: Tags and fused reporters may be left off the sequences shown.

One test has as its target BRI1-nYFP (UniProt O22476). Kind of test: split reporter; BRI1-nYFP and DAY-cYFP co-expressed; N. benthamiana epidermal cells observed two days after agroinfiltration; compared with SYP61-mRFP (TGN/EE).
The target in test [1] is cytosolic domain of BRI1-Like 1 (BRL1) (UniProt Q9ZWC8). Kind of test: pull-down; MBP-DAY and the cytosolic domain of BRL1 (Supplementary Fig. 20b); who was immobilised is not given.
For test [2], the target named is Flag-BRI1 KD with the CT domain (UniProt O22476). Kind of test: pull-down; Flag-tagged BRI1 cytosolic constructs immobilised on resin, incubated with E. coli lysates expressing MBP or MBP-DAY variants; 20 mM Tris-HCl pH 7.5, 200 mM NaCl, 10% glycerol, 1% IGEPAL, 1 h at room temperature; immunoblotting; only the target purified.
In test [3] the target is Flag-BRI1 KD with the JM domain (UniProt O22476). Described as above.
The target in test [4] is DAY-GFP (Arabidopsis thaliana) (UniProt Q94C78). Kind of test: co-IP; total proteins of 7 days old 35S::DAY-GFP Arabidopsis seedlings (WT Col-0 as control), GFP-Trap Agarose 6 h in the cold room, four washes with co-IP buffer; anti-BRI1 immunoblot.
Test [5] addresses MBP-∆cTP DAY (Arabidopsis thaliana). Kind of test: pull-down; MBP or MBP-∆cTP DAY immobilised on amylose agarose resin, incubated with lysates of E. coli cells expressing the prey; 20 mM Tris-HCl pH 7.5, 200 mM NaCl, 10% glycerol, 1% IGEPAL, 1 h at room temperature; eluates immunoblotted (anti-GST or anti-Flag); only the target purified.

With DAY-cYFP (from UniProt Q94C78), the binding entry with BRI1-nYFP is reported as “binds”. Take MBP-DAY (from UniProt Q94C78): the binding result in test [1], in test [2] and in test [3] was “binds” throughout.

For “native BRI1 (from UniProt O22476 24-1196) (receptor)”, the binding entry in test [4] was “binds”.

B1: GST-CPP1 (protein, UniProt Q9FN50 49-258)
chain: TVDSSYGGNVPTFPRTRVWDPYKRLGVSPYASEEEIWASRNFLLQQYAGHERSEESIEGAFEKLLMSSFIRRKKTKINLKSKLKKKVEESPPWLKALLDFVEMPPMDTIFRRLFLFAFMGGWSIMNSAEGGPAFQVAVSLAACVYFLNEKTKSLGRACLIGIGALVAGWFCGSLIIPMIPTFLIQPTWTLELLTSLVAYVFLFLSCTFLK
Turning to B1, in test [5], the binding entry is recorded as “binds”.
